The supplement of paper PMC8728848
This is one part of the list.

Key:
Test in all cases: glycan array binding signal (z-score within array); higher = stronger binding
Conditions in all cases: glycan notation: IUPAC condensed, linker removed
[1] = target: Neu5Ac(a2-3)Gal(b1-4)[Fuc(a1-3)]GlcNAc(b1-3)GalNAc
Outline: (§1)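 Glycan array binding is given as a within-array Z-score, which can be read as non-binding when negative. The arrays, 3228 of them, came from the Consortium for Functional Glycomics database and were retained only where the protein sequence was available. Z-scores were averaged across arrays of the same protein sequence at different concentrations or buffers and across linkers.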

[2] = target: Neu5Ac(a2-3)Gal(b1-4)[Fuc(a1-3)]GlcNAc(b1-6)[Gal(b1-3)]GalNAc
Outline: as §1

[3] = target: Neu5Ac(a2-3)Gal(b1-4)[Fuc(a1-3)]GlcNAc(b1-6)[Neu5Ac(a2-3)Gal(b1-3)]GalNAc
Outline: as §1

[4] = target: Neu5Ac(a2-3)Gal(b1-4)[Fuc(a1-3)]GlcNAc6S
Outline: as §1

[5] = target: Neu5Ac(a2-3)Gal6S(b1-4)GlcNAc
Outline: as §1

[6] = target: Neu5Ac(a2-3)Gal6S(b1-4)[Fuc(a1-3)]GlcNAc
Outline: as §1

Neu5Ac(a2-3)GalNAc = target: Neu5Ac(a2-3)GalNAc
Outline: as §1

[7] = target: Neu5Ac(a2-3)GalNAc(b1-4)GlcNAc
Outline: as §1

[8] = target: Neu5Ac(a2-3)[GalNAc(b1-4)]Gal(b1-4)Glc
Outline: as §1

[9] = target: Neu5Ac(a2-3)[GalNAc(b1-4)]Gal(b1-4)GlcNAc
Outline: as §1

[10] = target: Neu5Ac(a2-3)[GalNAc(b1-4)]Gal(b1-4)GlcNAc(b1-3)GalNAc
Outline: as §1

[11] = target: Neu5Ac(a2-3)[Neu5Ac(a2-6)]GalNAc
Outline: as §1

Neu5Ac(a2-6)Gal = target: Neu5Ac(a2-6)Gal
Outline: as §1

[12] = target: Neu5Ac(a2-6)Gal(b1-3)GlcNAc(b1-3)[Gal(b1-4)GlcNAc(b1-6)]Gal(b1-4)Glc
Outline: as §1

Neu5Ac(a2-6)Gal(b1-4)Glc = target: Neu5Ac(a2-6)Gal(b1-4)Glc
Outline: as §1

[13] = target: Neu5Ac(a2-6)Gal(b1-4)GlcNAc
Outline: as §1

[14] = target: Neu5Ac(a2-6)Gal(b1-4)GlcNAc(b1-2)Man
Outline: as §1

[15] = target: Neu5Ac(a2-6)Gal(b1-4)GlcNAc(b1-2)Man(a1-3)Man(b1-4)GlcNAc(b1-4)GlcNAc
Outline: as §1

[16] = target: Neu5Ac(a2-6)Gal(b1-4)GlcNAc(b1-2)Man(a1-3)[Gal(b1-4)GlcNAc(b1-2)Man(a1-6)]Man(b1-4)GlcNAc(b1-4)GlcNAc
Outline: as §1

[17] = target: Neu5Ac(a2-6)Gal(b1-4)GlcNAc(b1-2)Man(a1-3)[GlcNAc(b1-2)Man(a1-6)]Man(b1-4)GlcNAc(b1-4)GlcNAc
Outline: as §1

[18] = target: Neu5Ac(a2-6)Gal(b1-4)GlcNAc(b1-2)Man(a1-3)[GlcNAc(b1-2)Man(b1-4)GlcNAc(b1-2)Man(a1-6)]Man(b1-4)GlcNAc(b1-4)GlcNAc
Outline: as §1

B1: NK2 (Sus scrofa) (peptide)
chain: KILRGVCKKIMRTFLRRISKDILTGKK
glycan array binding signal (z-score) [1]: -0.396 | glycan array binding signal (z-score) [2]: 1.03 | glycan array binding signal (z-score) [3]: 0.602 | glycan array binding signal (z-score) [4]: 0.787 | glycan array binding signal (z-score) [5]: 1.26 | glycan array binding signal (z-score) [6]: -0.104 | glycan array binding signal (z-score) (Neu5Ac(a2-3)GalNAc): -0.422 | glycan array binding signal (z-score) [7]: 0.436 | glycan array binding signal (z-score) [8]: -0.813 | glycan array binding signal (z-score) [9]: -0.876 | glycan array binding signal (z-score) [10]: 0.715 | glycan array binding signal (z-score) [11]: 0.24 | glycan array binding signal (z-score) (Neu5Ac(a2-6)Gal): -0.071 | glycan array binding signal (z-score) [12]: -0.293 | glycan array binding signal (z-score) (Neu5Ac(a2-6)Gal(b1-4)Glc): 0.162 | glycan array binding signal (z-score) [13]: -0.187 | glycan array binding signal (z-score) [14]: -0.289 | glycan array binding signal (z-score) [15]: 0.355 | glycan array binding signal (z-score) [16]: 0.509 | glycan array binding signal (z-score) [17]: -0.169 | glycan array binding signal (z-score) [18]: -0.471
